The supplement of paper PMC7666118
This is one part of the list.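 Rule for the calls: active = dose-dependent thermal stabilisation significant by F-test of dose-response against flat model at 10% FDR; inactive = not significant.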

The chains behind the UniProt entries cited, without tags or fusion partners. Where a name states a change or a piece, a line headed by the entry shows the natural chain unless it says otherwise.
UniProt O75367, whole entry: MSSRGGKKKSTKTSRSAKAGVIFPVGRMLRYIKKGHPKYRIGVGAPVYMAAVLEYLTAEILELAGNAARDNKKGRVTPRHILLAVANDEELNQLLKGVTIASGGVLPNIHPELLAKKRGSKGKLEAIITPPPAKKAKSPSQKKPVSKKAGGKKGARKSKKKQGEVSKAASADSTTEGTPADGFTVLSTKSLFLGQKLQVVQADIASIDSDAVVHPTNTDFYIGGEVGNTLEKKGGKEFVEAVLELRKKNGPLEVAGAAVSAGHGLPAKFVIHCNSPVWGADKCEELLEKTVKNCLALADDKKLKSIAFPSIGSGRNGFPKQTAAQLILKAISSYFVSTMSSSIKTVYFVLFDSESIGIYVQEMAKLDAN
UniProt Q9NYZ3: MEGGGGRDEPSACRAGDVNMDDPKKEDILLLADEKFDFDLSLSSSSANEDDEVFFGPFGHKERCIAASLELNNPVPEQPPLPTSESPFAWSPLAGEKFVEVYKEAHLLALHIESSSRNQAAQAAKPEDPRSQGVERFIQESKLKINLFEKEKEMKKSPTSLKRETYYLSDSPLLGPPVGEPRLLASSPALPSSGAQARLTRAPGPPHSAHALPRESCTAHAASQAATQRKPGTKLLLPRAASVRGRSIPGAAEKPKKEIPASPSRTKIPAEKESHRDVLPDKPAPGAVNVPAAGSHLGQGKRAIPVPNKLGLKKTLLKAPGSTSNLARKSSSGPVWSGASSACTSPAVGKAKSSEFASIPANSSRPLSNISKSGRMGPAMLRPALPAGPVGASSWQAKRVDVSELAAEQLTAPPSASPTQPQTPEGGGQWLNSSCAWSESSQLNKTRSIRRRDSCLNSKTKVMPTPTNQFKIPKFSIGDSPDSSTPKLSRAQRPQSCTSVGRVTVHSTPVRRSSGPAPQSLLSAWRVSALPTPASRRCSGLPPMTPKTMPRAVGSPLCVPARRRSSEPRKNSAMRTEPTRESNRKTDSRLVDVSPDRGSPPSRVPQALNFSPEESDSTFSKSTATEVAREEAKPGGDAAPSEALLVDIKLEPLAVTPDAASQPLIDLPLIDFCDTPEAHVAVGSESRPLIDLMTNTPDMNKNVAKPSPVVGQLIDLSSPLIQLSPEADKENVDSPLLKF
UniProt O14976: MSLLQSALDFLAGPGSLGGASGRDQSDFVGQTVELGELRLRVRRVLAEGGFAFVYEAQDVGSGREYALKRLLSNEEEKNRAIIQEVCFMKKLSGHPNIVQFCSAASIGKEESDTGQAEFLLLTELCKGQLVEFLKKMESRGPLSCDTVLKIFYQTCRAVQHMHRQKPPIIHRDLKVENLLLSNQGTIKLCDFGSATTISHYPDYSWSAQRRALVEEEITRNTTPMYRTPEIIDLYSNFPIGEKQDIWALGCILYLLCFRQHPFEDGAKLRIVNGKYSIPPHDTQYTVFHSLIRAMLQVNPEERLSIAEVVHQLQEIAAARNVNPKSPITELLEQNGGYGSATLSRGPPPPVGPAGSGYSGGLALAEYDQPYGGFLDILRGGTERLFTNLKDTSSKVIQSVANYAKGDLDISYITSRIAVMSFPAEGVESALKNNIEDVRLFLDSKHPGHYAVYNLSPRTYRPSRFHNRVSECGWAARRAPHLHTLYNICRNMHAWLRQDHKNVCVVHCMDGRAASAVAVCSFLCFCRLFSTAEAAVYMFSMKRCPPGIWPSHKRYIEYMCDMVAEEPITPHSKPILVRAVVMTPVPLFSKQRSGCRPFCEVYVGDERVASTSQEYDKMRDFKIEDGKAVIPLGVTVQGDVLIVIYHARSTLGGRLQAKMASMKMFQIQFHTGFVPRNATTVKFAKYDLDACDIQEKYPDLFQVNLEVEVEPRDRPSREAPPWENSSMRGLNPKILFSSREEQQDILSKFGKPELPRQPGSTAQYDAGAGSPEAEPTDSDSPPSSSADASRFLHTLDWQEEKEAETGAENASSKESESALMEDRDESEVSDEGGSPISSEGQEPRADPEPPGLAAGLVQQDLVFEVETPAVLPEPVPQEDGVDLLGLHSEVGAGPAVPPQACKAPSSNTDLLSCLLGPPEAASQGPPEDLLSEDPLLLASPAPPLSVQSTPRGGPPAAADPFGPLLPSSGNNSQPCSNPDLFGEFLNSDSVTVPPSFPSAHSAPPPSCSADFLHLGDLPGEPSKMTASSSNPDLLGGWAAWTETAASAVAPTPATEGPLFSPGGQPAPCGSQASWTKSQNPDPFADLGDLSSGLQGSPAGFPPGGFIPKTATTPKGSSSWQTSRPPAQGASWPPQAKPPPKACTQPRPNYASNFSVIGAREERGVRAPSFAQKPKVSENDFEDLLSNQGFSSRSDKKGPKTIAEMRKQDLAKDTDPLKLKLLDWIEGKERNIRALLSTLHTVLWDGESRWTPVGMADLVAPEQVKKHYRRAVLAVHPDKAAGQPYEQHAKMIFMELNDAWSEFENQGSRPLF
UniProt Q8IXQ4: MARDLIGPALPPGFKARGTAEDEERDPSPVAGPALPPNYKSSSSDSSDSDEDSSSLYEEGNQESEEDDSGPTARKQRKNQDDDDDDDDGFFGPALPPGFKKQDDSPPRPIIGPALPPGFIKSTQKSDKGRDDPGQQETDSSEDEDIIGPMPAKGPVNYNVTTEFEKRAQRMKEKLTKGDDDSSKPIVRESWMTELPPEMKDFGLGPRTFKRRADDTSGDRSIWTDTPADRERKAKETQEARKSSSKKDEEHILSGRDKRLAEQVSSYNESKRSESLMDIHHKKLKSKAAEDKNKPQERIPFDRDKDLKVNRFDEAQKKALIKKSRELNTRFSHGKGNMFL
UniProt O14653: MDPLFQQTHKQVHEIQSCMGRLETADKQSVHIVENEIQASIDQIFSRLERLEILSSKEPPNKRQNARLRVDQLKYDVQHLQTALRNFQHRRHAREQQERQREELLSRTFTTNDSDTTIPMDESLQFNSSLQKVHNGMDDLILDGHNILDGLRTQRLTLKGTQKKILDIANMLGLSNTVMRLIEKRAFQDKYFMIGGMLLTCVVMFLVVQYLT
UniProt Q99729: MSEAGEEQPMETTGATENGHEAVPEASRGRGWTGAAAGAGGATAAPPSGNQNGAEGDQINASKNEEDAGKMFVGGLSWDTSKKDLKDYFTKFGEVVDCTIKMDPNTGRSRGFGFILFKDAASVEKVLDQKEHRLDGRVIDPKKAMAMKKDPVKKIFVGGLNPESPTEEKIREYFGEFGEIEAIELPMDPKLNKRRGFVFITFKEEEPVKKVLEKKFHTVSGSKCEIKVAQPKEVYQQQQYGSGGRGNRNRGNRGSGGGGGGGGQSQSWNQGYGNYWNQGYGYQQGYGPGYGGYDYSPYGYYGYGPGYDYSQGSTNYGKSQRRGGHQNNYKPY
UniProt Q14376: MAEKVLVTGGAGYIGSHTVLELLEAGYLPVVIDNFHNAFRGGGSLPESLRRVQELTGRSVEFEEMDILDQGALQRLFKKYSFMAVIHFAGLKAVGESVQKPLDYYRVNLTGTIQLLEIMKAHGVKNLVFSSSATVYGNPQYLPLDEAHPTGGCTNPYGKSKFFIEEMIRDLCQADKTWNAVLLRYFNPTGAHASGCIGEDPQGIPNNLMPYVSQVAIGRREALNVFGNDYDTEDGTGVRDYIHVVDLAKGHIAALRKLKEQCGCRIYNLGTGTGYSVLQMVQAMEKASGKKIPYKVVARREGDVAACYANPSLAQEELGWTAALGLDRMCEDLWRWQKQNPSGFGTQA
UniProt Q32P51: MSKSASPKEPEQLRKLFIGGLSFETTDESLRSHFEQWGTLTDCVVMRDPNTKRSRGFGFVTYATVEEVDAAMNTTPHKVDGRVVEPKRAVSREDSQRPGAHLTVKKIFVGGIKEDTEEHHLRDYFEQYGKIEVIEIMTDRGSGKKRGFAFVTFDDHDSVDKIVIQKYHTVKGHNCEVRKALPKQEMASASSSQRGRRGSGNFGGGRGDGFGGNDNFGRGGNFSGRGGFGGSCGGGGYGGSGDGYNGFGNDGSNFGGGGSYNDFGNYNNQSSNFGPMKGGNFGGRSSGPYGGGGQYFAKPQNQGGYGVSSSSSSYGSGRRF
UniProt Q9H116: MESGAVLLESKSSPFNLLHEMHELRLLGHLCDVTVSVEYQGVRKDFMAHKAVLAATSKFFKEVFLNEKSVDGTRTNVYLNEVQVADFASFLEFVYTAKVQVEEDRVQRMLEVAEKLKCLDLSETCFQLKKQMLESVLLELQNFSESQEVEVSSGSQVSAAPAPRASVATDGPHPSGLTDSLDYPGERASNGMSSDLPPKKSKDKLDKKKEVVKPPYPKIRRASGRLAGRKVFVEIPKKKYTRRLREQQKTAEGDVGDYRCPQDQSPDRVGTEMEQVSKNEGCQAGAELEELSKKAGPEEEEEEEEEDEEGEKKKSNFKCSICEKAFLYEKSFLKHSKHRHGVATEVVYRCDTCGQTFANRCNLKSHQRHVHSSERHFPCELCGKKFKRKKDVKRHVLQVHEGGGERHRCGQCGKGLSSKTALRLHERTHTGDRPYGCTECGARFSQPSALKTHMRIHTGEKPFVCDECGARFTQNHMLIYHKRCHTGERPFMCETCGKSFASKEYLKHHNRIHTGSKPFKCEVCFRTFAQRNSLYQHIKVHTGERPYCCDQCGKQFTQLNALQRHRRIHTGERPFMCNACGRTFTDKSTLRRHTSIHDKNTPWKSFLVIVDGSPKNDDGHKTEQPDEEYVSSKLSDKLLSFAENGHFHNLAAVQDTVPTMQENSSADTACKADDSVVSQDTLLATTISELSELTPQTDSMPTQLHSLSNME
UniProt P36969, whole entry: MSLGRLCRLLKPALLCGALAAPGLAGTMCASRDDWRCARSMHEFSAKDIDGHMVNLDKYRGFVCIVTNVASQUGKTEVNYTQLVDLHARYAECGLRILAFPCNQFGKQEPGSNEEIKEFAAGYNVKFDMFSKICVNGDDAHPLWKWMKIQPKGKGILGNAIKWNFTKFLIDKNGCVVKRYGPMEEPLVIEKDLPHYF
UniProt Q92769, whole entry: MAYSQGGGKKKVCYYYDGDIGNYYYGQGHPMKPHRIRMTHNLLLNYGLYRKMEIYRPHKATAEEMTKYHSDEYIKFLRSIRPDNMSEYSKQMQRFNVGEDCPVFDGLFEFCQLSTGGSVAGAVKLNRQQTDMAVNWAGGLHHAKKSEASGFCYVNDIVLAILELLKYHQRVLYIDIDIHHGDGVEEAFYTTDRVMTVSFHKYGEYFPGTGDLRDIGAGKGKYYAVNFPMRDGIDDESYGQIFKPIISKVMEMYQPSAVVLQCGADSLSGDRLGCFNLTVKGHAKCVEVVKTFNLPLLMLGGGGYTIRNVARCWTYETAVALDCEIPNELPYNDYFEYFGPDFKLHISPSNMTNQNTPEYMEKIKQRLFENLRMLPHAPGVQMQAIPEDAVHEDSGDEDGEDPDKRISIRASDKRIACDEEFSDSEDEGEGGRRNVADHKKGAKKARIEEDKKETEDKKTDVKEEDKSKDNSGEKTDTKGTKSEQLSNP
UniProt P57764: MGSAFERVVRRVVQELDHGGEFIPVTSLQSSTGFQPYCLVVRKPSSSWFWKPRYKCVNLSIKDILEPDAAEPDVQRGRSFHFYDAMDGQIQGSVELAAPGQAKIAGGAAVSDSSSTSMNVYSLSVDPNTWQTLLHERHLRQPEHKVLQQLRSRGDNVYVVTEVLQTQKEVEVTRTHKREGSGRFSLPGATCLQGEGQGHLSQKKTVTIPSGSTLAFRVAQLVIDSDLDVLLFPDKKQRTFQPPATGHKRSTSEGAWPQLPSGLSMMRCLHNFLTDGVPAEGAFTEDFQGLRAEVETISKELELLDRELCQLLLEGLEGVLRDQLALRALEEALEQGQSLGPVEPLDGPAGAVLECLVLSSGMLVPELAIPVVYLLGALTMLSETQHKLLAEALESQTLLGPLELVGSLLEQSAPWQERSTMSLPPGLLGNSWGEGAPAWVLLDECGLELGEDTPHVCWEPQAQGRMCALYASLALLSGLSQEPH
UniProt Q5JVS0: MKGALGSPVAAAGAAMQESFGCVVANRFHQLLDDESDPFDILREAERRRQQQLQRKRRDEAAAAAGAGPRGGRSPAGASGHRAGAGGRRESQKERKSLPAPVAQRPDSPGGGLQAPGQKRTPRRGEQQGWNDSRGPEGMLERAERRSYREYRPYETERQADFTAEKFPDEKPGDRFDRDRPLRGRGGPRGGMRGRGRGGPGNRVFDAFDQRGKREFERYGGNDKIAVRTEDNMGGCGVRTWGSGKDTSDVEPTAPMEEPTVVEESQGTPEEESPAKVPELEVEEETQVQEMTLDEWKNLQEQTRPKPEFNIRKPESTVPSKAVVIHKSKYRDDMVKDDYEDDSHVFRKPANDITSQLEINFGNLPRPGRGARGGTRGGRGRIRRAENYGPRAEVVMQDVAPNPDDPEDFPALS
UniProt Q6PII5: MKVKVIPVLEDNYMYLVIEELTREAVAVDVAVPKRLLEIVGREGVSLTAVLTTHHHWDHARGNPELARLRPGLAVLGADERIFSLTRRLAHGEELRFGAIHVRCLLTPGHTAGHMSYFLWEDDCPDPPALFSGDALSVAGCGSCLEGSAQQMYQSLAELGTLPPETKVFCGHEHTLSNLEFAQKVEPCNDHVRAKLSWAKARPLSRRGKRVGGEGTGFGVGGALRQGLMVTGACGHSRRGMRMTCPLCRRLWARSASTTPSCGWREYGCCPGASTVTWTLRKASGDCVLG

These targets were tested with Nc1nc2c(ncn2[C@@H]2O[C@H](COP(=O)(O)OP(=O)(O)OP(=O)(O)O)[C@@H](O)[C@H]2O)c(=O)[nH]1 (assay: dose-dependent thermal stabilisation call (2D-TPP, DLPTP, 10% FDR) (binary (1 = stabilised)); higher = stabilised by the compound). Details: system: Jurkat gel-filtered lysate; concentration range 1-500 µM.
Description: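 2D thermal proteome profiling in gel-filtered Jurkat E6.1 lysate (2 mg/ml) treated with NaGTP (0, 1, 10, 100, 500 uM) for 10 min at room temperature, then heated 3 min at one of 12 temperatures (42-63.9 C). Soluble protein was quantified by TMT10 MS. The value is the DLPTP call of the paper: dose-dependent thermal stabilisation over all temperatures at 10% FDR (F-test of a dose-response against a flat model); one experiment, one call per tested protein.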

Row | Target | dose-dependent thermal stabilisation call
1 | H2AFY (UniProt O75367) | inactive: 0
2 | GGA3 (UniProt Q9NZ52) | inactive: 0
3 | GIGYF2 (UniProt Q6Y7W6) | inactive: 0
4 | GGA2 (UniProt Q9UJY4) | inactive: 0
5 | GSTM1 (UniProt P09488) | inactive: 0
6 | HINT1 (UniProt P49773) | inactive: 0
7 | GMEB1 (UniProt Q9Y692) | inactive: 0
8 | HNRNPC (UniProt P07910) | inactive: 0
9 | GTSE1 (UniProt Q9NYZ3) | inactive: 0
10 | GAK (UniProt O14976) | inactive: 0
11 | GPALPP1 (UniProt Q8IXQ4) | inactive: 0
12 | GID8 (UniProt Q9NWU2) | inactive: 0
13 | GPRIN1 (UniProt Q7Z2K8) | inactive: 0
14 | HIKESHI (UniProt Q53FT3) | inactive: 0
15 | HDHD5 (UniProt Q9BXW7) | inactive: 0
16 | HARS2 (UniProt P49590) | active: 1
17 | GOPC (UniProt Q9HD26) | inactive: 0
18 | HDAC7 (UniProt Q8WUI4) | inactive: 0
19 | GOSR2 (UniProt O14653) | inactive: 0
20 | HNRNPAB (UniProt Q99729) | inactive: 0

Row | Target | dose-dependent thermal stabilisation call
21 | GRAP2 (UniProt O75791) | active: 1
22 | GATC (UniProt O43716) | inactive: 0
23 | GALE (UniProt Q14376) | active: 1
24 | HNRNPA1L2 (UniProt Q32P51) | inactive: 0
25 | HNRNPDL (UniProt O14979) | inactive: 0
26 | GZF1 (UniProt Q9H116) | inactive: 0
27 | GCH1 (UniProt P30793) | inactive: 0
28 | GOLGA1 (UniProt Q92805) | inactive: 0
29 | GPX4 (UniProt P36969) | inactive: 0
30 | HIST1H4A, HIST1H4B, HIST1H4C, HIST1H4D, HIST1H4E, HIST1H4F, HIST1H4H, HIST1H4I, HIST1H4J, HIST1H4K, HIST1H4L, HIST2H4A, HIST2H4B, HIST4H4 (UniProt P62805) | inactive: 0
31 | GEMIN5 (UniProt Q8TEQ6) | inactive: 0
32 | HAUS4 (UniProt Q9H6D7) | inactive: 0
33 | HBS1L (UniProt Q9Y450) | active: 1
34 | GLG1 (UniProt Q92896) | inactive: 0
35 | HDAC2 (UniProt Q92769) | inactive: 0
36 | GSDMD (UniProt P57764) | active: 1
37 | HABP4 (UniProt Q5JVS0) | inactive: 0
38 | G3BP1 (UniProt Q13283) | inactive: 0
39 | HAGHL (UniProt Q6PII5) | inactive: 0
40 | GALNS (UniProt P34059) | inactive: 0

Rewritten as labelled records: part of the list above
GEMIN5 (UniProt Q8TEQ6)
  dose-dependent thermal stabilisation call: inactive: 0
HAUS4 (UniProt Q9H6D7)
  dose-dependent thermal stabilisation call: inactive: 0
